Test results published in US20220144812A1, “QUINOLINE DERIVATIVES AND THEIR USE FOR THE TREATMENT OF CANCER” (Epizyme, Inc., priority 2019, published 2022).

By UniProt entry, the sequences of proteins in these tests, tags left out. Residues count along the entry.
UniProt Q92793, 1084-1701 limits assumed: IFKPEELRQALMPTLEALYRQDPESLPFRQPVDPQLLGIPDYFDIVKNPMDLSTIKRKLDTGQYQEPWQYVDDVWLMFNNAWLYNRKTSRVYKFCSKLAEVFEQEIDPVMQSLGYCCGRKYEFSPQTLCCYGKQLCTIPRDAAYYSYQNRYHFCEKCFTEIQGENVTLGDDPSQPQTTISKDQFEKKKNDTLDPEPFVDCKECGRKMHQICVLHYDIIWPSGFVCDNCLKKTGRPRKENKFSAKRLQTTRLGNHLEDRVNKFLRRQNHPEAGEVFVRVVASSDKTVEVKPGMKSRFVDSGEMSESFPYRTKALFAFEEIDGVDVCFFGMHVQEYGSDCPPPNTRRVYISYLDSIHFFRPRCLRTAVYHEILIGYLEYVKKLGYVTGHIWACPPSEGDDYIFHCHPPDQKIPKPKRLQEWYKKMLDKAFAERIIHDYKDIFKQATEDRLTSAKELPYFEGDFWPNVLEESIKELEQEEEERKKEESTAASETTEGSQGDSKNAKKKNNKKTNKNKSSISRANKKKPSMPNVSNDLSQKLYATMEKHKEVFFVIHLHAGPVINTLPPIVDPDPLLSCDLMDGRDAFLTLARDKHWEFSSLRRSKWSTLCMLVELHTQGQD
UniProt Q09472, 1048-1664 limits assumed: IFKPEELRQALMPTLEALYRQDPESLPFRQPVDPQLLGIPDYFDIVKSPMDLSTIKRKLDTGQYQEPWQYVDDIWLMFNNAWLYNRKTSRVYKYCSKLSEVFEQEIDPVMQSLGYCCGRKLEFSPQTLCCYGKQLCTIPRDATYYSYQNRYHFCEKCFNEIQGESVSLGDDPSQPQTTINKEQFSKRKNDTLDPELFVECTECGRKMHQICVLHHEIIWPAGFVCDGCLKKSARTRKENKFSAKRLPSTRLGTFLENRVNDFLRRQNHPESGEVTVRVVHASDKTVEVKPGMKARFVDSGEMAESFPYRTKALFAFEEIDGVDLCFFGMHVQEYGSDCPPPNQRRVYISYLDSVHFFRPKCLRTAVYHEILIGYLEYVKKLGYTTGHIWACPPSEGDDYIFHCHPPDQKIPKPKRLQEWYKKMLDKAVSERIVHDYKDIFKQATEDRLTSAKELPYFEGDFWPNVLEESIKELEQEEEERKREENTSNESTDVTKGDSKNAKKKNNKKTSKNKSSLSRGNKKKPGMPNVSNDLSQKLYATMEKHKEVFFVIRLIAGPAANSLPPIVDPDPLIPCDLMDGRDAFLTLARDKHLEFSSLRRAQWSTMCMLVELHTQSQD

Columns and labels:
[1] = test system: H3K18Ac in HB-CLS-2 cells; test: H3K18AC in-cell western (ICW) assay
From the text: The following example describes methods and materials relating to an H3K18AC in-cell western assay. IC50 values (micromolar (μM)) are summarized in Table 1, Table 2, and Table 3 under the column labeled: “CREBBP ICW IC50 (micromolar).”
MATERIALS: HB-CLS-2 cell line, DMEM: Ham's F12 medium (1:1 mixture), penicillin-streptomycin, heat inactivated fetal bovine serum, D-PBS, Odyssey blocking buffer, 800CW goat anti-rabbit IgG (H+L) antibody, Licor Odyssey CLx Infrared Scanner, H3K18Ac rabbit monoclonal antibody. DRAQS fluorescent probe solution (5 mM), and 100% methanol were commercially available. HB-CLS-2 adherent cells were maintained in complete growth medium (DMEM: Ham's F12 supplemented with 10% v/v heat inactivated fetal bovine serum) and cultured at 37° C. under 5% CO2.
METHOD: Cell Treatment, ICW for detection of H3K18Ac and DNA content. HB-CLS-2 cells were seeded in assay medium (DMEM: Ham's F12 supplemented with 10% v/v heat inactivated fetal bovine serum and 1% Penicillin/Streptomycin) at a concentration of 80,000 cells per mL in a Poly-D-Lysine coated 384-well culture plates at 50 μL per well. Plates were incubated at room temperature for 30 minutes and then incubated at 37° C., 5% CO2 for additional 16-24 hours. Compounds and DMSO normalization were then added directly to the plates using a D300 Digital Dispenser and returned to the incubator at 37° C., 5% CO2 for 2 hrs. After the incubation, the contents of the plates were discarded into the appropriate waste stream and blotted on laboratory tissue to remove residual liquid. 90 μL per well of 100% ice cold methanol was added to the plates and incubated at room temperature for 15 minutes. Then methanol was then discarded into the appropriate waste stream and the plates again blotted on laboratory tissue to remove residual liquid. Plates were transferred to a Biotek 405 plate washer and washed 3 times with 100 μL per well of wash buffer (1X PBS containing 0.1% Triton X-100 (v/v)). Next, 50 μL per well of Odyssey blocking buffer with 0.1% Tween 20 (v/v) was added to each plate and incubated for 1 hour at room temperature. Blocking buffer was removed and 20 μL of primary antibody were added (α-H3K18Ac diluted 1:800 in Odyssey buffer with 0.1% Tween 20 (v/v)) and plates were incubated overnight (16 hours) at 4° C. Plates were washed 5 times with 100 μL per well of wash buffer. Next 20 μL per well of secondary antibody was added (1:400 800CW goat anti-rabbit IgG (H+L) antibody, 1:2000 DRAQ5 in Odyssey buffer with 0.1% Tween 20 (v/v)) and incubated for 1 hour at room temperature. The plates were washed 3 times with 100 μL per well wash buffer then 3 times with 100 μL per well of water. Plates were allowed to dry at room temperature then imaged on the Licor Odyssey CLx machine which measured integrated intensity at 700 nm and 800 nm wavelengths. Both 700 and 800 channels were scanned.

[2] = molecular target: CREBBP (1084-1701) (Homo sapiens, UniProt Q92793); test: Biochemical assay for CREBBP (1084-1701), SAMDI
From the text: The following example describes materials and methods relating to a biochemical assay for CREBBP (1084-1701). IC50 values (micromolar (μM)) are summarized in Table 1, Table 2, and Table 3 under the column labeled: “CREBBP Biochemistry IC50 (micromolar).”
MATERIALS: Reagents 1M Tris pH 8.0, Tween 20 10%, DTT, bovine serum gelatin (BSG) 2%, Peptide #233 (biotin-H3 11-25, K14R, K23R), Acetyl-CoA, CREBBP (1084-1701), formic acid (100%), and sodium bicarbonate were commercially available.
METHODS: The effect of compounds was measured in the following biochemical assay using CREBBP (1084-1701). Enzyme mix 30 μL per well was added using a Multi-drop to wells of prepared Compound Stock plate. The enzyme was incubated in the Compound Stock plate for 30 minutes at room temperature. Substrate mix, 20 μL per well, was added to Compound Stock plate using a Multi-drop. The plate was covered and incubate 30 minutes at room temperature. The reaction was stopped with addition of 5 μL per well of 5% formic acid using a Multi-drop. The plate was Incubated for 30 minutes at room temperature. The reaction mixture was neutralized with addition of 5 μL per well of 10% sodium bicarbonate using a Multi-drop. The plate was Incubated for 35 minutes at room temperature. The reaction mixture was Transferred 2.5 μL per well to a SAMDI biochip. The plate was Incubated for 60 minutes at room temperature. The samples were washed, dried, and matrix applied to SAMDI biochip. The SAMDI biochip was then read on the mass spectrometer.

[3] = test system: 647V cells; test: High throughput proliferation (HTP) assay; conditions: read-out: CREBBP HTP IC50 (micromolar)
From the text: The following example describes methods and materials relating to a high throughput proliferation (HTP) assay. IC50 values (micromolar) are summarized in Table 1, Table 2, and Table 3 under the column labeled: “CREBBP HTP IC50 (micromolar).”
MATERIALS: 647V cell line, Dulbecco's MEM, penicillin-streptomycin, heat inactivated fetal bovine serum, D-PBS, and CellTiter-Glo were commercially available.
647V adherent cells were maintained in complete growth medium (Dulbecco's MEM supplemented with 15% v/v heat inactivated fetal bovine serum) and cultured at 37° C. under 5% CO2.
METHOD: Measurement of the effect of compound in High Throughput Proliferation (HTP) assays was performed as follows: Exponentially growing 647V cells were plated, in triplicate, in 384-well plates at the appropriate cell density in a final volume of 50 μl. Cells were incubated in the presence of increasing concentrations of compound. Viable cell number was determined at day 7 by addition of 35 μl CellTiter-Glo to each well of the plate, incubated in the dark for 30 minutes, and read on a PerkinElmer EnVision instrument to enumerate the number of cells.

[4] = molecular target: EP300 (P300(1048-1664)) (Homo sapiens, UniProt Q09472); test: Biochemical assay for EP300, SAMDI; conditions: read-out: EP300 Biochemistry IC50 (micromolar)
From the text: The following example describes materials and methods relating to a biochemical assay for EP300. IC50 values (micromolar (μM)) are summarized in Table 1, Table 2, and Table 3 under the column labeled: “EP300 Biochemistry IC50 (micromolar).”

[5] = read-out: CREBBP ICW IC50 (micromolar)
[6] = read-out: CREBBP Biochemistry IC50 (micromolar)

What does the source list for `CCn1ncc(CN(C)C(=O)c2nc(-c3cccc(Cl)c3)nc3ccc(Cl)cc23)c1C` [Compound 71]?
IC50 ([1]; read-out: CREBBP ICW IC50, HB-CLS-2 cells): 0.71 µM; IC50 ([2]; read-out: CREBBP Biochemistry IC50): 0.0056 µM

`CNCCNc1ccc(-c2cc(C(=O)N(C)Cc3cnc(C(C)O)n3C)c3cc(Cl)ccc3n2)nc1C` (stereo not shown) was tested. Which IC50 [1, 5] did it give?
Its IC50 is 14.2 µM.

And the IC50 [3]?
Its IC50 is 9.33 µM.

What about the IC50 [4] of the same compound?
Its IC50 is 9.48 µM.

What about the IC50 [2, 6] of the same compound?
Its IC50 is 8.65 µM.

Which results are given for `CCn1ncc(CN(C)C(=O)c2cc(-c3ccc(NCC(C)NC)c(C)n3)nc3ccc(Cl)cc23)c1C` (stereo not shown)?
IC50 [1, 5]: 0.103 µM; IC50 [3]: 0.0656 µM; IC50 [4]: 0.0079 µM; IC50 [2, 6]: 0.0194 µM

How did the IC50 [1, 5] turn out when `CCn1ncc(CN(C)C(=O)c2cc(-c3ccc(NC4CCOCC4)c(C)n3)nc3ccc(Cl)cc23)c1C` was run?
Its IC50 is 0.165 µM.

What about the IC50 [3] of the same compound?
Its IC50 is 0.127 µM.

And the IC50 [4]?
The IC50 was 0.0098 µM.

And the IC50 [2, 6]?
Its IC50 is 0.0274 µM.

How did the IC50 [1, 5] turn out when `CCc1ncc(CN(C)C(=O)c2cc(-c3ccc(NCCN(C)C)c(C)n3)nc3ccc(Cl)cc23)n1C` [578] was run?
Its IC50 is 0.104 µM.

And the IC50 [3]?
Its IC50 is 0.0432 µM.

And the IC50 [4]?
The IC50 was 0.0155 µM.

What about the IC50 [2, 6] of the same compound?
The IC50 was 0.042 µM.

`CCc1ncc(CN(C)C(=O)c2cc(-c3ccc(NCCN(C)C)c(C)n3)nc3ccc(Cl)cc23)n1C` [579] was tested. Which IC50 [1, 5] did it give?
Its IC50 is 0.136 µM.

What about the IC50 [4] of the same compound?
Its IC50 is 0.009 µM.

What about the IC50 [2, 6] of the same compound?
The IC50 was 0.0233 µM.

`CNCCNc1ccc(-c2cc(C(=O)N(C)Cc3cnc(C)n3C)c3cc(Cl)ccc3n2)nc1C` was tested. Which IC50 [1, 5] did it give?
The IC50 was 0.301 µM.

And the IC50 [3]?
The IC50 was 0.207 µM.

What about the IC50 [4] of the same compound?
The IC50 was 0.073 µM.

And the IC50 [2, 6]?
Its IC50 is 0.0698 µM.

Where two headings read alike, the source gives them in different places. The structures given here were assigned with low confidence; some may be wrong.
